In patent US20220227804A1, “COMBINATION OF A POLYHYDROXYLATED BILE ACID AND A FARNESOID X RECEPTOR AGONIST” (QING BILE THERAPEUTICS INC., priority 2019, published 2022):
For at least one compound, name, drawing or mass did not settle the structure.

Columns and labels:
Mdr2^−/− mice [1] = experiment: Follow-up study: OCA doses alone or in combination with 1% THBA in Mdr2−/− mice for 4 weeks; format: in vivo, mouse; details: OCA 0.003% w/w in diet by itself, female mice
Mdr2^−/− mice [2] = experiment: First study: dietary supplementation of Mdr2−/− mice (mouse model of human PSC and PFIC) for 17 weeks; details: mono-treatment, 0.03% OCA or 1% THBA (w/w) in diet, from 3 to 20 weeks of age, female mice

In the case of `CC[C@H]1[C@@H](O)[C@@H]2[C@H](CC[C@]3(C)[C@@H]([C@H](C)CCC(=O)O)CC[C@@H]23)[C@@]2(C)CC[C@@H](O)C[C@@H]12` [OCA, Obeticholic acid], the treatment effect (Mdr2^−/− mice [1]) is reported as “did not show any treatment effect” and the “liver indicator profiles (bilirubin, ALT, ALP, total bile acids in plasma)” value (Mdr2^−/− mice [2]) is reported as “significantly improved liver indicator profiles”.
